Test [1] concerns the target Vir-like m6A methyltransferase-associated (KIAA1429) protein, endogenous (human (endogenous in SW480, WiDr, HEK293T)) (UniProt Q69YN4). Kind of test: co-IP; endogenous proteins; reciprocal co-immunoprecipitation from 2 mg cell lysate (IP lysis buffer), antibody overnight at 4 °C, protein A/G beads, western blot. In general terms: In western blotting, separated proteins are transferred to a membrane and probed.

Protein sequences, listed by entry. Tags and fused reporters are not part of them. Lines headed by an entry give the natural chain unless they say otherwise; changes in a name come on top. Chains listed by the source or under a name are the forms on record and can include a tag or linker.
UniProt Q69YN4: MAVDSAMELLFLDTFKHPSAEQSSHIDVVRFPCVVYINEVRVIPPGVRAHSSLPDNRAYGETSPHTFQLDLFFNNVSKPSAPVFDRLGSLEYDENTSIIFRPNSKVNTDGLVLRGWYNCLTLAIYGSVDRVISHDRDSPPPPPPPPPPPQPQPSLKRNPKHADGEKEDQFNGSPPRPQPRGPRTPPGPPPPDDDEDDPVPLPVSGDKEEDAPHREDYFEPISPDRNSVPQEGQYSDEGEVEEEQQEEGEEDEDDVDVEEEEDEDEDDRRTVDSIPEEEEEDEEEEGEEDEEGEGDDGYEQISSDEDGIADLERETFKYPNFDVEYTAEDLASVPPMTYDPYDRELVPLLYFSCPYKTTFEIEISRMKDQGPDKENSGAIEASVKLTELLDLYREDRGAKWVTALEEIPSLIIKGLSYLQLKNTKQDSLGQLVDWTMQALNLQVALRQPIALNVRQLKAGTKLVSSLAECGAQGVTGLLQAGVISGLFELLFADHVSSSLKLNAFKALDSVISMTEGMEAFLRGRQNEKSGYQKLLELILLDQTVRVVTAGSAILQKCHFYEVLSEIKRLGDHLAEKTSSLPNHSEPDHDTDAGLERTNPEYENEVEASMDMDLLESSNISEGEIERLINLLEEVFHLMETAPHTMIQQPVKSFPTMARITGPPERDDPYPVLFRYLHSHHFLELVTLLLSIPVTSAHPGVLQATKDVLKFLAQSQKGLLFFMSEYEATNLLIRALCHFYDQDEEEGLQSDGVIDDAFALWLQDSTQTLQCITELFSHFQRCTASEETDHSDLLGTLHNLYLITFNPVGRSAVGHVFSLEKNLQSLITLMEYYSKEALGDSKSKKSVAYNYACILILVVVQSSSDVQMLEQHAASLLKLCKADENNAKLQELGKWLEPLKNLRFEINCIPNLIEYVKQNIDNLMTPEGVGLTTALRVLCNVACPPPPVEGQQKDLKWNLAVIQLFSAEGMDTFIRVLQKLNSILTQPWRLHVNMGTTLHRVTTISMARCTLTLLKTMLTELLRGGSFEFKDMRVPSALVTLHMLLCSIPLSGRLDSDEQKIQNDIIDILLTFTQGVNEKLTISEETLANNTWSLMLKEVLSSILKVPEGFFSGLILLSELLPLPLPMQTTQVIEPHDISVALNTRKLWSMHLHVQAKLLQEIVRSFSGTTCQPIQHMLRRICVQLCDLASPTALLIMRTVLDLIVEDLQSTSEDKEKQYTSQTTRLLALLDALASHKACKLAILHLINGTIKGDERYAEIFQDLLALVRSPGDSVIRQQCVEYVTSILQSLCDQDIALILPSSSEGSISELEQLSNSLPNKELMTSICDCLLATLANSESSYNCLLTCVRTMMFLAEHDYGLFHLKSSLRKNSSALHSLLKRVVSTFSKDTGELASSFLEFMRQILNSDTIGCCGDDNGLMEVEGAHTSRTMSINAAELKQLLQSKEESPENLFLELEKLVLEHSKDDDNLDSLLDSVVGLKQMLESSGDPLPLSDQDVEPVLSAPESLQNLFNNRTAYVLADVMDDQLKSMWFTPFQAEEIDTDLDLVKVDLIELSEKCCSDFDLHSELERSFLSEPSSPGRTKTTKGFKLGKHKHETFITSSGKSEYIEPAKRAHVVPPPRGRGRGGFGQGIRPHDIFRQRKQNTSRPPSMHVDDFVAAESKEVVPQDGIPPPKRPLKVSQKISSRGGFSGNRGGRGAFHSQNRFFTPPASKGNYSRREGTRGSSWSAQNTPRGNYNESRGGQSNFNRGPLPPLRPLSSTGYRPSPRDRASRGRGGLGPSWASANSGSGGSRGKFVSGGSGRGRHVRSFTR
KIAA1429 with serine 1579 replaced by alanine (KIAA1429-SA) (Q69YN4, form named): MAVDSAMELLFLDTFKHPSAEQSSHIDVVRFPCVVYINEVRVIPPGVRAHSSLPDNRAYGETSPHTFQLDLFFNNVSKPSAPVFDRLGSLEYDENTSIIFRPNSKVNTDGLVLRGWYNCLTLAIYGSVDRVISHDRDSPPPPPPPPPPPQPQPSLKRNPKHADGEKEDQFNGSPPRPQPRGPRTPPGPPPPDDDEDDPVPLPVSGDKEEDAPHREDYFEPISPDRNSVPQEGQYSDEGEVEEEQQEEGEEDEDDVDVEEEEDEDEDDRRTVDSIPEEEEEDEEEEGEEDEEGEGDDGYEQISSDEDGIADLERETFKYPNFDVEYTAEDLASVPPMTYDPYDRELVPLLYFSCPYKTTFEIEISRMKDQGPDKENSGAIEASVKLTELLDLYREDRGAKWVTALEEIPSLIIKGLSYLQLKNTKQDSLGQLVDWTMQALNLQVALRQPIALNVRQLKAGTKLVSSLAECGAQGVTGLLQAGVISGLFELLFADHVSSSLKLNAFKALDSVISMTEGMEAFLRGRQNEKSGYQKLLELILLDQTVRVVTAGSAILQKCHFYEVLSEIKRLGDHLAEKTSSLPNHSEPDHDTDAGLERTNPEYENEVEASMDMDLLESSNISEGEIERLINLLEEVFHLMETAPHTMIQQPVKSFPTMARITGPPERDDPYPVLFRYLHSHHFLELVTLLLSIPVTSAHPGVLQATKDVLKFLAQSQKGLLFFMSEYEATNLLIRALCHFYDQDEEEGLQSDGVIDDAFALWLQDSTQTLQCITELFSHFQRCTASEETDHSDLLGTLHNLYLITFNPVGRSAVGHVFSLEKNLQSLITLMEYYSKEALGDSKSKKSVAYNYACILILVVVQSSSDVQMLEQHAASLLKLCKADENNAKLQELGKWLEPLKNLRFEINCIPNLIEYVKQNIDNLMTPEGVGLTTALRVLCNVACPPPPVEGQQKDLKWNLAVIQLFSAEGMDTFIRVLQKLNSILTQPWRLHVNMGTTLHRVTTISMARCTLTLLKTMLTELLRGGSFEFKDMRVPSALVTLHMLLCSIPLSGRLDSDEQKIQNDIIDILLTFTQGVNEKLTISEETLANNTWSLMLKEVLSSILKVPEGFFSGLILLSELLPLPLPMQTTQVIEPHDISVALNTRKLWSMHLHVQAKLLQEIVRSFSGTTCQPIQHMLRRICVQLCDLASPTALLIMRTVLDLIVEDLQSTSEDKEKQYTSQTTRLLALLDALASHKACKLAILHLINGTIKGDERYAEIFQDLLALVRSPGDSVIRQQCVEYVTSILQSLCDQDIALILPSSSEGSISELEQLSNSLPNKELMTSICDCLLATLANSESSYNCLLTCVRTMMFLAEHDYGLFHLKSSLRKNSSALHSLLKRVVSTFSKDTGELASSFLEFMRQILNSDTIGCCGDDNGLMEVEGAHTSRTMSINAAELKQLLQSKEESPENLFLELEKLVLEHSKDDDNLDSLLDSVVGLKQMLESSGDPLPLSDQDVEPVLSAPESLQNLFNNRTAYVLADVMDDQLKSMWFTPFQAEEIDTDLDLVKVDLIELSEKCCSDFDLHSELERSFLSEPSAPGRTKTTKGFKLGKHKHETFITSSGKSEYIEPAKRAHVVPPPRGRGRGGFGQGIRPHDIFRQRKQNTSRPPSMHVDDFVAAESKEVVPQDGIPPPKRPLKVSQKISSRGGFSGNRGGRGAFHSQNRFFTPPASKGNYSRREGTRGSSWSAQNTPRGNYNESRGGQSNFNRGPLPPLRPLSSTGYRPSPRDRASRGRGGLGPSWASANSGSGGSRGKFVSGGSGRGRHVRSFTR
UniProt P52294: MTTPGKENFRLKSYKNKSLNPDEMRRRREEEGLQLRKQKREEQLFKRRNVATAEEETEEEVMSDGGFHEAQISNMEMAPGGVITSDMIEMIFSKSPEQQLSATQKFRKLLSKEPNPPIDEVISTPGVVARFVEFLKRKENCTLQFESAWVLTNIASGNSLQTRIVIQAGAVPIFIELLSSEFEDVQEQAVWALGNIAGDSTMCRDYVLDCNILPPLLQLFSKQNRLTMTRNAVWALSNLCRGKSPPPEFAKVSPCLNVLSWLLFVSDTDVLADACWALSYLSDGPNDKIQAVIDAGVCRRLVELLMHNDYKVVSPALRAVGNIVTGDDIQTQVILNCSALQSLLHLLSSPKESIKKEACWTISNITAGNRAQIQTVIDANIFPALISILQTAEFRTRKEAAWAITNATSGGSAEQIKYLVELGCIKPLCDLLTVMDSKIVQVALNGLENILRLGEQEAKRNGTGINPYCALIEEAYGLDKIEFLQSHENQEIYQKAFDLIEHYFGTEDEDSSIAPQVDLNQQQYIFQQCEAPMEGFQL
UniProt P15056: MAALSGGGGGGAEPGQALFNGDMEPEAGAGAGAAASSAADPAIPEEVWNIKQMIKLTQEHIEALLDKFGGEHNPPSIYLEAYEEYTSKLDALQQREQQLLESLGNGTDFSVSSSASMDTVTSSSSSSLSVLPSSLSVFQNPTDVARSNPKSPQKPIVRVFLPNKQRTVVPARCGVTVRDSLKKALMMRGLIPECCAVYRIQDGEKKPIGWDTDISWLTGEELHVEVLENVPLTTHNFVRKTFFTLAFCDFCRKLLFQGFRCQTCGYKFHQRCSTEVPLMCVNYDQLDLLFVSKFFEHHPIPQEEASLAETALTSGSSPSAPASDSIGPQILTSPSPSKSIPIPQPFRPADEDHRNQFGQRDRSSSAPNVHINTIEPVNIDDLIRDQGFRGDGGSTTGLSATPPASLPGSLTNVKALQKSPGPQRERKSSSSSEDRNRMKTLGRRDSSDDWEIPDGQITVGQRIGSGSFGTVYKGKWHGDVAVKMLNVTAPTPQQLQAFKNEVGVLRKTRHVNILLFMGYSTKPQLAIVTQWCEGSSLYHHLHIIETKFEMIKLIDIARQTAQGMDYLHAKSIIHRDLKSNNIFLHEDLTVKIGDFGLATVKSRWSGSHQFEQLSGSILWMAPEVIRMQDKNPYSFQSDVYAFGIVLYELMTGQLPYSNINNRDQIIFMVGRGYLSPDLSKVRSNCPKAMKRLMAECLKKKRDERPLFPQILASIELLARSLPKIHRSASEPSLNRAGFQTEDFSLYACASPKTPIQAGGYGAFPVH

The target in test [2] is importin α5, endogenous (human (endogenous in SW480, HEK293T)) (UniProt P52294). Briefly: co-IP; 293T and SW480 cells overexpressing KIAA1429-WT or KIAA1429-SA plasmid; IP and western blot for importin α5.
Test [3] has the same target. Briefly: co-IP; endogenous proteins; reciprocal co-immunoprecipitation from 2 mg cell lysate (IP lysis buffer), antibody overnight at 4 °C, protein A/G beads, western blot.
Test [4] concerns the target BRAF, endogenous in SW480 cells (human (endogenous in SW480)) (UniProt P15056). Described as above.

No constants are given. Whether binding was seen depends on the method and setting. In cells and extracts the contact can be indirect. Some binding calls cover weakened binding; strength is not graded here.

As to “BRAF, endogenous in SW480 cells (from UniProt P15056 1-766) (enzyme)”, in test [1], the binding entry was “binds”. Consider “KIAA1429 with serine 1579 replaced by alanine (KIAA1429-SA) (from UniProt Q69YN4 1-1812)”, for which the binding result in test [2] is on record as “binds”.

With “Vir-like m6A methyltransferase-associated (KIAA1429) protein, endogenous (from UniProt Q69YN4 1-1812)”, the binding entry in test [3] and in test [4] was “binds” each time.

In the case of “importin α5, endogenous (from UniProt P52294 1-538)”, the binding result in test [1] is listed as “binds”.

(Values after paper PMC12225155.)
